Reference: patent US20250186373A1, “TARGETING AN EUKARYOTIC INITIATION FACTOR 2 ALPHA KINASE TO REGULATE TRANSLATION UNDER STRESS” (The Johns Hopkins University, priority 2022, published 2025)

Columns and labels:
[1] = system: MARK2; conditions: previous report; cited from earlier work
[2] = molecular target: T1, MARK2 (Mus musculus, UniProt Q05512); experiment: cell-based MARK2 kinase activity assay based on eIF2α phosphorylation (immunoblot of MEFs); conditions: for activity in inhibiting the phosphorylation of eIF2α: comparison of seven drugs, FIG. 21E
T1 construct: endogenous in cells; host or cells: mouse embryonic fibroblasts (MEFs)
T1 sequence (Q05512 1-776): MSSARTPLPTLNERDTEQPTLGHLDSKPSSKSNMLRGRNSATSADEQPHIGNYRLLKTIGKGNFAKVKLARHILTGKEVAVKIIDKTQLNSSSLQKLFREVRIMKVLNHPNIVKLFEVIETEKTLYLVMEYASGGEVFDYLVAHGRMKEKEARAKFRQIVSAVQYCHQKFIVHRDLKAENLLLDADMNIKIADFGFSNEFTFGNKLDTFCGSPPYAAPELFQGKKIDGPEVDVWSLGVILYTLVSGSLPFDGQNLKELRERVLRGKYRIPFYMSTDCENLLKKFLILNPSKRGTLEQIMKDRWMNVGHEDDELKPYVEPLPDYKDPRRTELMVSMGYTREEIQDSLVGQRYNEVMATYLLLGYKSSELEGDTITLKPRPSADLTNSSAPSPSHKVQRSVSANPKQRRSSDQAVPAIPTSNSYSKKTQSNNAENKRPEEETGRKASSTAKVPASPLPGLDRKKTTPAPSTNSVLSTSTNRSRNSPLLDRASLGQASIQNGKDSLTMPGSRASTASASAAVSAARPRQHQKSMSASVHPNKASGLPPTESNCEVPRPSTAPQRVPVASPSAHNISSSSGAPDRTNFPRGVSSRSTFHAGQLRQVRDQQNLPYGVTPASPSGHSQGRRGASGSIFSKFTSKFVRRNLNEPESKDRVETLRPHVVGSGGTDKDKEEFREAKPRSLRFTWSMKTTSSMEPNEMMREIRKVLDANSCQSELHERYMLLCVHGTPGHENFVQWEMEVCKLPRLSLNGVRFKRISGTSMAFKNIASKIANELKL

With `O=C1NC(=O)C(c2ccccc2[N+](=O)[O-])=C1Nc1ccc(O)c(Cl)c1` [SB415286] as the compound, how does the MARK kinase function [1] read?
Its MARK kinase function is “inhibited MARK kinase function”.

And the “phosphorylation of eIF2α-51S” value ([2]; MEFs, 20 μM, 1 hr, versus DMSO control, FIG. 21A)?
Its value is “substantially reduces the phosphorylation of eIF2α-^51S”.

What about the “increase in the levels of phosphorylated eIF2α-51S in response to MG132” value ([2]; cell co-treatment with MG132) of the same compound?
Its value is “substantially diminished the increase”.

And the “activity in inhibiting the phosphorylation of eIF2α” value [2]?
The value was “high activity for inhibiting eIF2α phosphorylation”.

And the “activity in inhibiting the phosphorylation of eIF2α” value ([2]; listed as SB-415286)?
The value was “high activity”.
